Data reported in patent US20250163013A1, “TREATMENT OF GENITOURINARY SYNDROME OF MENOPAUSE” (THE REGENTS OF THE UNIVERSITY OF COLORADO, a body corporate, priority 2022, published 2025).
For some of these results: For at least one compound, name, drawing or mass did not settle the structure. Some of these results come from one statement about several compounds together.

Columns and labels:
Format in all cases: in vivo
ovariectomized rat [1] = experiment: Depth of vaginal epithelium in ovariectomized rat model of GSM
Procedure: Independent measurement from mid-vagina (sections 3-4) and vagina near the cervix (sections 6-7) are shown. Twenty-five separate measurements were performed on sections 3-4 and also on sections 6-7 for each animal. There were 6 animals per treatment group, therefore each bar represents the mean of 150 measurements with the vertical line indicating one standard deviation.
(§1) Compound 4 of Table 1 was tested in the ovariectomized rat, a model of GSM, (Yousefzadeh N, et al., Ovariectomized rat model of osteoporosis: a practical guide. EXCLI J. 2020 Jan. 10; 19:89-107. doi: 10.17179/excli2019-1990). […] To determine the depth of the epithelium, high quality 100x images were taken of the two regions and thickness of the epithelium measured at 25 distinct sites at each level for each animal, then averaged. […] P values were determined by student's T-test. […]

ovariectomized rat [2] = experiment: Ki67 immunohistochemistry of vaginal sections, ovariectomized rat; settings: estradiol 0.1 microgram/suppository daily for 14 days
Procedure: Compound 4 of Table 1 was tested in the ovariectomized rat, a model of GSM, (Yousefzadeh N, et al., Ovariectomized rat model of osteoporosis: a practical guide. EXCLI J. 2020 Jan. 10; 19:89-107. doi: 10.17179/excli2019-1990). Six rats were tested in each of five treatment groups: rats treated with low or high concentrations of control (vehicle only); rats treated with low (0.2 mg/suppository or high (1.0 mg/suppository levels of compound 4 (abbreviated as “3F” in these figures); and rats treated with estradiol 0.1 microgram/suppository. Suppositories were administered intravaginally daily for 14 days. There were two sets of vehicle controls, corresponding to the level of excipients used in the in the low and high compound 4 treatment conditions. The estradiol treatment condition had excipients equivalent to the high control and high compound 4 treatment conditions. […] To determine the depth of the epithelium, high quality 100x images were taken of the two regions and thickness of the epithelium measured at 25 distinct sites at each level for each animal, then averaged. […] P values were determined by student's T-test. […]
Ki-67 is a protein expressed in G1, S, G2, and M phase and has been established as a marker of cellular proliferation. […] Approximately 800 cells were assessed on each slide. […] P values were determined by student's T-test.

ovariectomized rat [3] = experiment: Vaginal mucin 5B immunohistochemistry, semi-quantitative score, ovariectomized rat; settings: intravaginal suppository daily for 14 days
Procedure: as §1
To investigate compound 4-mediated production of mucins in more detail, we investigated the production and presence of mucin 5B in the rat vagina. […] A semi-quantitative scoring system for the mucin 5B immunohistochemistry was designed with values between 0 to 2 in increments of 0.5 for the quantity of mucin 5B and the depth of the epithelium positive for mucin 5B, and then assessed at the levels 1, 2&3, 4&5, and 6&7. The presence of mucin 5B in the vaginal lumen was also assessed, then all values were summed for each animal. […] P values were determined by student's T-tests.

| SMILES | mean epithelial depth, p value vs corresponding control (ovariectomized rat [1]; high compound 4, 1.0 mg/suppository intravaginally daily for 14 days, sections 3-4 and 6-7, student's T-test) | mean epithelial depth, p value vs corresponding control (ovariectomized rat [1]; estradiol 0.1 microgram/suppository intravaginally daily for 14 days) | percent Ki67 positive cells in vaginal basal and parabasal layers vs control (ovariectomized rat [2]) | vaginal production of mucins, in words (ovariectomized rat [3]) |
| --- | --- | --- | --- | --- |
| O=c1c(F)c(-c2ccc(O)cc2)oc2ccc(O)cc12 [compound 4, 3-fluoro-6-hydroxy-2-(4-hydroxyphenyl)-4H-chromen-4-one] | < 0.001 | – | – | – |
| C[C@]12CC[C@@H]3c4ccc(O)cc4CC[C@H]3[C@@H]1CC[C@@H]2O [estradiol, reference compound] | – | < 0.001 | no statistical difference between the groups | but not estradiol |
